Results are given in words; binding and its absence hold for the method and conditions named. For part of these data: Binding seen in cells or lysates may run through a third protein. Some binding calls cover weakened binding; strength is not graded here.
What was measured:
SMAD3 [1] = target: SMAD3 (UniProt P84022); test: co-immunoprecipitation from HCT116 lysates, western blot
HDAC1 [2] = target: HDAC1 (UniProt Q13547); test: as above
SMAD3 [3] = target: SMAD3 (UniProt P84022); test: co-immunoprecipitation (anti-BLM) from transfected HCT116 cells, western blot
HDAC1 [4] = target: HDAC1 (UniProt Q13547); test: as above
GST HDAC1 (WT) [5] = target: GST HDAC1 (WT) (UniProt Q13547); test: in vitro GST pull-down of 35S-labelled BLM, autoradiography
GST HDAC1 (WT) [6] = target: GST HDAC1 (WT) (UniProt Q13547); test: in vitro interaction of S35 methionine radiolabelled BLM with bound GST HDAC1, autoradiography

The chains behind the UniProt entries cited, without tags or fusion partners.
UniProt P84022: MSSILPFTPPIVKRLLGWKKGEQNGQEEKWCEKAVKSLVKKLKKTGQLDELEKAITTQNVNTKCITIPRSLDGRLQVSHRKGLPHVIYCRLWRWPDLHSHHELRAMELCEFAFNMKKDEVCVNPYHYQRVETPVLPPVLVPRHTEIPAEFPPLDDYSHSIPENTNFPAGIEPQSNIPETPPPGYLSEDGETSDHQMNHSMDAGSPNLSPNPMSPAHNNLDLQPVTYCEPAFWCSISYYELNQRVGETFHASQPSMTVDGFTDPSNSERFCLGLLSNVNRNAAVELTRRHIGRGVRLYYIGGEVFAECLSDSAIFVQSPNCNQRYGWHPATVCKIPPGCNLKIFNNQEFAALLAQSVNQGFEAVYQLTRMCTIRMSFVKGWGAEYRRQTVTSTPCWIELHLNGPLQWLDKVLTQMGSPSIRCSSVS
UniProt Q13547: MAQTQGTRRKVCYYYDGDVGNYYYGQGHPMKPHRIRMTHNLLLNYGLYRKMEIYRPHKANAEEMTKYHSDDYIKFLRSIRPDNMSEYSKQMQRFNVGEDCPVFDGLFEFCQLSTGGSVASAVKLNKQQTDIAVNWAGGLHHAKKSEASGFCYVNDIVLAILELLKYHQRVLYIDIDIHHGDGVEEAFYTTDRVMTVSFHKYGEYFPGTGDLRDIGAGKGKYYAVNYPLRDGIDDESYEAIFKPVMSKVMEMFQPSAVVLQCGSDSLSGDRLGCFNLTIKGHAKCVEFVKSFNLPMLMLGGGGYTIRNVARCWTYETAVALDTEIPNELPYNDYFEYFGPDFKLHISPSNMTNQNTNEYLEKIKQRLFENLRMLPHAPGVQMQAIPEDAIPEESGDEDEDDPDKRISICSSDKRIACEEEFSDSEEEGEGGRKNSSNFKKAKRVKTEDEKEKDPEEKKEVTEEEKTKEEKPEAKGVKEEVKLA
UniProt P54132: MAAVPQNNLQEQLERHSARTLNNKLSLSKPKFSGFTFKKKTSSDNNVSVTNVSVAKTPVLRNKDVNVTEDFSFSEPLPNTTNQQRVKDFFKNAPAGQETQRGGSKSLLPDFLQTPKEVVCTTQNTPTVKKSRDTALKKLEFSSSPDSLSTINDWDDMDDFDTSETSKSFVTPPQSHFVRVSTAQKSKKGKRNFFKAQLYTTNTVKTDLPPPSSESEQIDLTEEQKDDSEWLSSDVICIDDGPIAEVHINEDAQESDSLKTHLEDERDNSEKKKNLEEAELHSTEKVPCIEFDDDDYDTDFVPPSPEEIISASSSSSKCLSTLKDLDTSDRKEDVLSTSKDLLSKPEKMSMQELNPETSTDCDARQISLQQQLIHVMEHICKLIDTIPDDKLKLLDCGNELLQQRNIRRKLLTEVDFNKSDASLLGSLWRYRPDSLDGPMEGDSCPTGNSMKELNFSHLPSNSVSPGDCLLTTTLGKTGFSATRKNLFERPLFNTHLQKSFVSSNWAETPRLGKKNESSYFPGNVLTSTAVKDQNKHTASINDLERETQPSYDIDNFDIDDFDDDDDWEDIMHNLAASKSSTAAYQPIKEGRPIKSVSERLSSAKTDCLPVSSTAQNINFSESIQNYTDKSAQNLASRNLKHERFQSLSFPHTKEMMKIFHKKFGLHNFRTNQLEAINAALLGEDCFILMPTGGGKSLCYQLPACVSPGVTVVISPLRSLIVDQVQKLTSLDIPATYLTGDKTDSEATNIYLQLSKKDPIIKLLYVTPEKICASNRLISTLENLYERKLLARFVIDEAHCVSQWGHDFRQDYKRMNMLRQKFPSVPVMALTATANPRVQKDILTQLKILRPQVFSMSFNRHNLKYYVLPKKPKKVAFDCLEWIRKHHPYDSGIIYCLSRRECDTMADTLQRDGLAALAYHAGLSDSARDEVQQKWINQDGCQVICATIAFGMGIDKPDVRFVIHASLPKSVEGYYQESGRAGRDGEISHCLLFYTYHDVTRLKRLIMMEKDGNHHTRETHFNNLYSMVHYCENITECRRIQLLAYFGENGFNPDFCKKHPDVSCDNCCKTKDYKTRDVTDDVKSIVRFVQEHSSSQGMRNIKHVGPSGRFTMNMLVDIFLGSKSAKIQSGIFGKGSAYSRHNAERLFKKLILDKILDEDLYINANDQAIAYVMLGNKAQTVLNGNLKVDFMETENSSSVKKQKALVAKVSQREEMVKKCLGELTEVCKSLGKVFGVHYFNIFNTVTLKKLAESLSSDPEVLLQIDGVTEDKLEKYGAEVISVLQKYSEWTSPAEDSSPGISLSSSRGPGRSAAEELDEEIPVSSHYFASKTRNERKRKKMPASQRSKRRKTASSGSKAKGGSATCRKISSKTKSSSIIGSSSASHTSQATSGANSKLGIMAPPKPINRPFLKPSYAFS

Measured: binding

BLM helicase, in HCT116 cells / immunoprecipitated BLM (from UniProt P54132 1-1417) (enzyme)
binds: SMAD3 [1] | HDAC1 [2] | SMAD3 [3] | HDAC1 [4]

S35 methionine radiolabelled BLM (in vitro translated) (from UniProt P54132 1-1417) (enzyme)
binds: GST HDAC1 (WT) [5] | GST HDAC1 (WT) [6]

— patent US20230407401A1
